This passage reports binding results from article PMC5769606.

By UniProt entry, the sequences of proteins in these tests, tags left out.
UniProt Q02637: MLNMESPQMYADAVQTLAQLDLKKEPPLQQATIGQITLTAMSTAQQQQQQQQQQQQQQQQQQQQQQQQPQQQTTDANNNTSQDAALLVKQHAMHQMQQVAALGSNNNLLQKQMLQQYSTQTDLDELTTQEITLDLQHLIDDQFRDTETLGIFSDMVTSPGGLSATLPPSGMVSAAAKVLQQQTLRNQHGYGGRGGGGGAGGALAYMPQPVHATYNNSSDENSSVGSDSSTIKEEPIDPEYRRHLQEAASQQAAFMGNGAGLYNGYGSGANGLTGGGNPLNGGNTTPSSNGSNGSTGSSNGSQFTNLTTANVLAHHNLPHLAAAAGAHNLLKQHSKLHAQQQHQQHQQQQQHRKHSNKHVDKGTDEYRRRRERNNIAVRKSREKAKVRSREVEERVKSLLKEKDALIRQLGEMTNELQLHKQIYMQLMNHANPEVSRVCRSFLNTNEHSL

The target in test [1] is T1, FLAGTrbl WT two-hybrid bait (pDEST32) (Drosophila) (UniProt Q9V3Z1).
T1 sequence: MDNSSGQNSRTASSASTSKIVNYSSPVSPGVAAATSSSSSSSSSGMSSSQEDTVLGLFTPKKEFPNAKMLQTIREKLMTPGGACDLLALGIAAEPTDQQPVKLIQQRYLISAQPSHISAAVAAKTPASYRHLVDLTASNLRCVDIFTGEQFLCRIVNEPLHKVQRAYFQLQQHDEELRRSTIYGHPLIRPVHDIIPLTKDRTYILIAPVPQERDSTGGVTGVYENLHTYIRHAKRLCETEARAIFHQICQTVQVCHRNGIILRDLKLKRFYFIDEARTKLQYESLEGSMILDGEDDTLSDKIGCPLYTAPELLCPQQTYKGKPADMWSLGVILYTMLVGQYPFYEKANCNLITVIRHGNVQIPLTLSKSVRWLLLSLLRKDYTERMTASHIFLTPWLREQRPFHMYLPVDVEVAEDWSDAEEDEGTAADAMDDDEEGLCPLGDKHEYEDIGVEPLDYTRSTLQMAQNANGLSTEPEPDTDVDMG
Put plainly: two-hybrid; ProQuest system, S. cerevisiae MaV203; Trbl in bait vector pDEST32, dAkt or Slbo in prey vector pDEST22; growth on SC-Leu-Trp-His with 3AT at various concentrations, 3-4 days at 30°C.

For test [2], the target named is T2, Trbl R141E two-hybrid bait (Drosophila) (UniProt Q9V3Z1).
T2 sequence: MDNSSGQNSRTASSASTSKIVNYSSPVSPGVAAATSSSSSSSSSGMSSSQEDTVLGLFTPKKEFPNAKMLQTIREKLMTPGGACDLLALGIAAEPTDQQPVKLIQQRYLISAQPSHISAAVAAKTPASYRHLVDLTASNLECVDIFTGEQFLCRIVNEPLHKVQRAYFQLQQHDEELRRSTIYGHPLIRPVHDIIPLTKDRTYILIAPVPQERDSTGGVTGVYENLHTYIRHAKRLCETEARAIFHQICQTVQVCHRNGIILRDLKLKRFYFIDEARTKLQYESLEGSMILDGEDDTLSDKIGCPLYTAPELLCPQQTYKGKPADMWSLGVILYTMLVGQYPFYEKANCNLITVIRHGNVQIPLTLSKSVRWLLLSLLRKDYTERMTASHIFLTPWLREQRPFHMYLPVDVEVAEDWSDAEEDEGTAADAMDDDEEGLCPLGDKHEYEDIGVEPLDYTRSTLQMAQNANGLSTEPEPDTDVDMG
Described as above.

Test [3] addresses T3, FLAGTrbl^R141Q two-hybrid bait (pDEST32) (Drosophila) (UniProt Q9V3Z1).
T3 sequence: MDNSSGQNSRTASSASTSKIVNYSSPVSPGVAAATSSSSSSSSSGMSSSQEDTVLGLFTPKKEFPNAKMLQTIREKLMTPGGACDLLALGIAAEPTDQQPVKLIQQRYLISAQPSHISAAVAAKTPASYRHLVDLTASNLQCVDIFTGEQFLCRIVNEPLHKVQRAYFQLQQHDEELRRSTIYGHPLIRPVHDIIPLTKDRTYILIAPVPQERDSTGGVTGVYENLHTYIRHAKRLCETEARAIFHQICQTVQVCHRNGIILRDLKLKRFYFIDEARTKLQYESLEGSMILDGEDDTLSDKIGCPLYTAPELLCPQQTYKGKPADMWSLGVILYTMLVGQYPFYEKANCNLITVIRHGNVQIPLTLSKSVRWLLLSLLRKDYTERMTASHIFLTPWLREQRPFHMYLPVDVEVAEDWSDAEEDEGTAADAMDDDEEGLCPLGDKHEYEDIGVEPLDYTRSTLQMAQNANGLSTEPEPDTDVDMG
Described as above.

The target of test [4] is T1, FLAGTrbl WT two-hybrid bait (pDEST32) (Drosophila). The test is described as above. This is another data set of the same source.
Test [5] addresses T2, Trbl R141E two-hybrid bait (Drosophila). Described as above. The source holds these as a separate data set.
Test [6] deals with T3, FLAGTrbl^R141Q two-hybrid bait (pDEST32) (Drosophila). The description is as above. This is another data set of the same source.
For test [7], the target named is T4, FLAG-tagged Drosophila Tribbles, wild type (UAS-FLAG-trbl.WT transgene) (Drosophila) (UniProt Q9V3Z1).
T4 sequence: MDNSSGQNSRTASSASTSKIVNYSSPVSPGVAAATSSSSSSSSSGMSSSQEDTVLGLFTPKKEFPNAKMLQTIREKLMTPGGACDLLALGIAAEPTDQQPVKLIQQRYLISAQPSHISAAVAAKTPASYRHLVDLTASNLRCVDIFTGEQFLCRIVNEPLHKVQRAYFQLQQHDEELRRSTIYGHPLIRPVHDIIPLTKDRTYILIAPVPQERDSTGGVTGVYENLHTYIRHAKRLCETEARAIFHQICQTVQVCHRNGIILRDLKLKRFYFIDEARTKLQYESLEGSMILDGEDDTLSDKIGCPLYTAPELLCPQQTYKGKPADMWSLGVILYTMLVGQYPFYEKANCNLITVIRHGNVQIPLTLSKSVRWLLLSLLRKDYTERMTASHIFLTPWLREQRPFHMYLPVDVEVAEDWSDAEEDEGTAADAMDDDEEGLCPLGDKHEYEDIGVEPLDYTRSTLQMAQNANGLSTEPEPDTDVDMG
The test is described as follows: co-IP; embryonic extracts misexpressing dAkt and WT or mutant Trbl; immunoprecipitation with Trbl antisera, western blot with anti-Akt sera. Background: Immunoblotting shows a protein as a band on a membrane.

Test [8] deals with T5, FLAG-tagged Drosophila Tribbles R141Q (UAS-FLAG-trbl^R141Q transgene) (Drosophila) (UniProt Q9V3Z1).
T5 sequence: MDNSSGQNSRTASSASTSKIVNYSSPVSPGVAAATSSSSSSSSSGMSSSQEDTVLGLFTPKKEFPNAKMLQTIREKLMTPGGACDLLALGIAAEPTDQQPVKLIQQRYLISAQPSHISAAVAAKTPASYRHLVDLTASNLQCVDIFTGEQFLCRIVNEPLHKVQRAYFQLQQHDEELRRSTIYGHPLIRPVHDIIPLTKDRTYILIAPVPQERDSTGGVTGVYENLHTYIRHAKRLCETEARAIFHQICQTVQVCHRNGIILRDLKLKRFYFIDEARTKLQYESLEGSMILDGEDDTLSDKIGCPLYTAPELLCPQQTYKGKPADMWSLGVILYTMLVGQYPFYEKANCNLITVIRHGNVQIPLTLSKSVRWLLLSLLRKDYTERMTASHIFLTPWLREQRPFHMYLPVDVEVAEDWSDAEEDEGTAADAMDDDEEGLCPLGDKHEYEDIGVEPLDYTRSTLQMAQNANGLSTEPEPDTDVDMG
Described as above.

For test [9], the target named is T6, FLAG-tagged Drosophila Tribbles R141E (UAS-FLAG-trbl^R141E transgene) (Drosophila) (UniProt Q9V3Z1).
T6 sequence: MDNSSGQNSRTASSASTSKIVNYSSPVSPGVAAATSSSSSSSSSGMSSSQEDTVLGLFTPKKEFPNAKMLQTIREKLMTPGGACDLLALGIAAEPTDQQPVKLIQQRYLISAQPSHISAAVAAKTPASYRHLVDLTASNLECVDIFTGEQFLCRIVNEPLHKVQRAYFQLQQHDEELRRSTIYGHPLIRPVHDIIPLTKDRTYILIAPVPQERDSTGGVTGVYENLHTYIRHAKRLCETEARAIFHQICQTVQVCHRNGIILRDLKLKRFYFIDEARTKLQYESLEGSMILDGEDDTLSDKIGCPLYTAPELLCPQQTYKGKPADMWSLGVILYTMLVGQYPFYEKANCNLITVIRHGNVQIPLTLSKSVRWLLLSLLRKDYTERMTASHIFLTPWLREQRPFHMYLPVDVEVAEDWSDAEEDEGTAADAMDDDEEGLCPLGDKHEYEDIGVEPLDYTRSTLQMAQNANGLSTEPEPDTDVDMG
The test is described as follows: co-IP; larval fat body extracts misexpressing Trbl transgenes (r4-GAL4); anti-Trbl antibody on PrecipHen beads, glycine elution, blot for Akt.

Read-outs that look alike come from different tables or passages of the source. Results are given in words; binding and its absence hold for the method and conditions named. For part of these data: In cells and extracts the contact can be indirect. Some entries that bind do so weakly or less than the wild type. For part of these data: Where a sequence is shown, tags or fusion partners need not be part of it.

Consider “Slow border cells (Slbo) two-hybrid prey (pDEST22) (from UniProt Q02637 1-449)”, for which the binding result in [1], in [2] and in test [3] was “binds” each time.

B1: dAkt two-hybrid prey (pDEST22) (enzyme, UniProt Q8INB9-2 1-530)
chain: MSINTTFDLSSPSVTSGHALTEQTQVVKEGWLMKRGEHIKNWRQRYFVLHSDGRLMGYRSKPADSASTPSDFLLNNFTVRGCQIMTVDRPKPFTFIIRGLQWTTVIERTFAVESELERQQWTEAIRNVSSRLIDVGEVAMTPSEQTDMTDVDMATIAEDELSEQFSVQGTTCNSSGVKKVTLENFEFLKVLGKGTFGKVILCREKATAKLYAIKILKKEVIIQKDEVAHTLTESRVLKSTNHPFLISLKYSFQTNDRLCFVMQYVNGGELFWHLSHERIFTEDRTRFYGAEIISALGYLHSQGIIYRDLKLENLLLDKDGHIKVADFGLCKEDITYGRTTKTFCGTPEYLAPEVLDDNDYGQAVDWWGTGVVMYEMICGRLPFYNRDHDVLFTLILVEEVKFPRNITDEAKNLLAGLLAKDPKKRLGGGKDDVKEIQAHPFFASINWTDLVLKKIPPPFKPQVTSDTDTRYFDKEFTGESVELTPPDPTGPLGSIAEEPLFPQFSYQGDMASTLGTSSHISTSTSLASMQ
With B1, the binding entry in [4], in [5] and in test [6] was “binds” throughout.

B2: Drosophila Akt misexpressed in embryos (enzyme, UniProt Q8INB9 1-611)
chain: MNYLPFVLQRRSTVVASAPAPGSASRIPESPTTTGSNIINIIYSQSTHPNSSPTSGSAEKFSWQQSWPSRTSAAPTHDSGTMSINTTFDLSSPSVTSGHALTEQTQVVKEGWLMKRGEHIKNWRQRYFVLHSDGRLMGYRSKPADSASTPSDFLLNNFTVRGCQIMTVDRPKPFTFIIRGLQWTTVIERTFAVESELERQQWTEAIRNVSSRLIDVGEVAMTPSEQTDMTDVDMATIAEDELSEQFSVQGTTCNSSGVKKVTLENFEFLKVLGKGTFGKVILCREKATAKLYAIKILKKEVIIQKDEVAHTLTESRVLKSTNHPFLISLKYSFQTNDRLCFVMQYVNGGELFWHLSHERIFTEDRTRFYGAEIISALGYLHSQGIIYRDLKLENLLLDKDGHIKVADFGLCKEDITYGRTTKTFCGTPEYLAPEVLDDNDYGQAVDWWGTGVVMYEMICGRLPFYNRDHDVLFTLILVEEVKFPRNITDEAKNLLAGLLAKDPKKRLGGGKDDVKEIQAHPFFASINWTDLVLKKIPPPFKPQVTSDTDTRYFDKEFTGESVELTPPDPTGPLGSIAEEPLFPQFSYQGDMASTLGTSSHISTSTSLASMQ
Turning to B2, the binding result in test [7] and in [8] was “binds” each time.

B3: Drosophila Akt in larval fat body extract (enzyme, UniProt Q8INB9 1-611)
chain: MNYLPFVLQRRSTVVASAPAPGSASRIPESPTTTGSNIINIIYSQSTHPNSSPTSGSAEKFSWQQSWPSRTSAAPTHDSGTMSINTTFDLSSPSVTSGHALTEQTQVVKEGWLMKRGEHIKNWRQRYFVLHSDGRLMGYRSKPADSASTPSDFLLNNFTVRGCQIMTVDRPKPFTFIIRGLQWTTVIERTFAVESELERQQWTEAIRNVSSRLIDVGEVAMTPSEQTDMTDVDMATIAEDELSEQFSVQGTTCNSSGVKKVTLENFEFLKVLGKGTFGKVILCREKATAKLYAIKILKKEVIIQKDEVAHTLTESRVLKSTNHPFLISLKYSFQTNDRLCFVMQYVNGGELFWHLSHERIFTEDRTRFYGAEIISALGYLHSQGIIYRDLKLENLLLDKDGHIKVADFGLCKEDITYGRTTKTFCGTPEYLAPEVLDDNDYGQAVDWWGTGVVMYEMICGRLPFYNRDHDVLFTLILVEEVKFPRNITDEAKNLLAGLLAKDPKKRLGGGKDDVKEIQAHPFFASINWTDLVLKKIPPPFKPQVTSDTDTRYFDKEFTGESVELTPPDPTGPLGSIAEEPLFPQFSYQGDMASTLGTSSHISTSTSLASMQ
With B3, the binding result in test [9] was “binds”.
